From publication PMC9161502
Results are given in words; binding and its absence hold for the method and conditions named. Binding seen in cells or lysates may run through a third protein. Some results given as binding are weak or reduced against the parent protein; the word gives no strength. For part of these data: Sequences can lack the tags named with a protein.

Sequences of proteins named here, by UniProt entry; tags and fusion partners are left off.
UniProt P97496: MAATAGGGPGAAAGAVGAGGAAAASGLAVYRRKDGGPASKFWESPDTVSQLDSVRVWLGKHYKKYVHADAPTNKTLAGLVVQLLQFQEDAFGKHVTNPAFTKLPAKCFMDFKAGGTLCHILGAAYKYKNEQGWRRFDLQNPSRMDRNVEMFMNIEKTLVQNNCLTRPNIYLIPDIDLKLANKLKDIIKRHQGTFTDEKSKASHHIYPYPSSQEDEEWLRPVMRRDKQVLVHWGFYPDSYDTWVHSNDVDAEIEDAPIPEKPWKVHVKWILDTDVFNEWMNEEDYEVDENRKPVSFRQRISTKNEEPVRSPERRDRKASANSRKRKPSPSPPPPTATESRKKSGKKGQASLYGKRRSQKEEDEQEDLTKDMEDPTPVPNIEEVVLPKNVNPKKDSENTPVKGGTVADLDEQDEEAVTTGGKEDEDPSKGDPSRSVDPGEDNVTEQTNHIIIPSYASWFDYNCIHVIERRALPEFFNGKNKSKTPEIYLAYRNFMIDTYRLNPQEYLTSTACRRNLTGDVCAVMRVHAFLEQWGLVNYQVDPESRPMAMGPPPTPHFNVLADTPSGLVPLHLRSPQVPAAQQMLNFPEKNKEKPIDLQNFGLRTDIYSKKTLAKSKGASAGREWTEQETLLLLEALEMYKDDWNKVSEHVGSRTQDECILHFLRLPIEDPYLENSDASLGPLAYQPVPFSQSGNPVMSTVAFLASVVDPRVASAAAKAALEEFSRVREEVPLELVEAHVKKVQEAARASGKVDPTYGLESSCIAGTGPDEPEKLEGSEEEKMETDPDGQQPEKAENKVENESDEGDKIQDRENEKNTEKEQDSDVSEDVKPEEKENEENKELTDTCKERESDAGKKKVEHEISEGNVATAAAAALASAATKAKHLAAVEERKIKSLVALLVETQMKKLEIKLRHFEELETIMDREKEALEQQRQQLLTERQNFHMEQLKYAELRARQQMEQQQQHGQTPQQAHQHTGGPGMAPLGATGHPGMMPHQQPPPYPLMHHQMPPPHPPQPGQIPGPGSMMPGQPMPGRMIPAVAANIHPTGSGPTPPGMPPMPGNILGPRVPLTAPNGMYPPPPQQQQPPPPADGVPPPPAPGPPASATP
UniProt Q3TKT4: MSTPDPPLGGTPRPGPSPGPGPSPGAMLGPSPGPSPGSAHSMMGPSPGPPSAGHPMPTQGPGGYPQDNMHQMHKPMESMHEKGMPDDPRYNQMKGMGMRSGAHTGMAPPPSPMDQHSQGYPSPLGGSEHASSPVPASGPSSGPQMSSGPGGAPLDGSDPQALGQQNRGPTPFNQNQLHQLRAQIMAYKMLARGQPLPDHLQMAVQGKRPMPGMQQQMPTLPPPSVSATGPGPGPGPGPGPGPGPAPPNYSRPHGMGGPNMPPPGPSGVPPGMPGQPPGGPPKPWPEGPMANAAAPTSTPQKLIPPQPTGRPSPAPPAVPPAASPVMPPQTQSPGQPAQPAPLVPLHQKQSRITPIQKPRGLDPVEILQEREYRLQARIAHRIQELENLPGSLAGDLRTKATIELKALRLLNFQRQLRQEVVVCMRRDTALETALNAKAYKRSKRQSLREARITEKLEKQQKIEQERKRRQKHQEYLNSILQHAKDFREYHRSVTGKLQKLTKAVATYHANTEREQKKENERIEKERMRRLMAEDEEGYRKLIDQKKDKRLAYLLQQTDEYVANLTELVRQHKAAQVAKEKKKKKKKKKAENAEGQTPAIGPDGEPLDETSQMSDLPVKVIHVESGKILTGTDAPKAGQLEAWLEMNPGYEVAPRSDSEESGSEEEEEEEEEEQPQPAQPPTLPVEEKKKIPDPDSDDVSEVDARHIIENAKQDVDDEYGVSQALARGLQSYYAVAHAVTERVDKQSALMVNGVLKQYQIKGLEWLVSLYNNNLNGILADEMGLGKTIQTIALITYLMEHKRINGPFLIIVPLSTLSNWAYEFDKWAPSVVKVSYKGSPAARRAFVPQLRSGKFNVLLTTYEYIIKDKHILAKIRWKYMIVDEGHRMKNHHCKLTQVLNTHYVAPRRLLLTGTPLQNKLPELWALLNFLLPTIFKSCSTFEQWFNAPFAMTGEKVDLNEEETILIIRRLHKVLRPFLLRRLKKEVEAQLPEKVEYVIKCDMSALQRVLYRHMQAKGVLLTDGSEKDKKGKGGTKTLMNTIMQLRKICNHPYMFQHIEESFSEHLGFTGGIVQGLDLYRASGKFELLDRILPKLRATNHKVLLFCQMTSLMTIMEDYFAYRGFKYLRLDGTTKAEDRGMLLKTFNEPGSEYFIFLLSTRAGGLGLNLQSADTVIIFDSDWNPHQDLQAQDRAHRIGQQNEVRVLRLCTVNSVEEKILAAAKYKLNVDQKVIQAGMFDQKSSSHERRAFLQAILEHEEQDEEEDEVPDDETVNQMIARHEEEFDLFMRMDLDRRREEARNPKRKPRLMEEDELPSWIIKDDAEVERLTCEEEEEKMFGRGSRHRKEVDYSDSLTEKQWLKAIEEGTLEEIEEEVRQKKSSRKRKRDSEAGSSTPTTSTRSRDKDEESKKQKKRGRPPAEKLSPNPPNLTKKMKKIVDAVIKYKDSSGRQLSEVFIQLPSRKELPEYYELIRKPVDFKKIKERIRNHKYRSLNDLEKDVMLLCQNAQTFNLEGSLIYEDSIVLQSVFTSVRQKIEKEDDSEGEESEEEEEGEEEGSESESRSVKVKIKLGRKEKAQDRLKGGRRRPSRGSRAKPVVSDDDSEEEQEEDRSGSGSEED
UniProt P23198: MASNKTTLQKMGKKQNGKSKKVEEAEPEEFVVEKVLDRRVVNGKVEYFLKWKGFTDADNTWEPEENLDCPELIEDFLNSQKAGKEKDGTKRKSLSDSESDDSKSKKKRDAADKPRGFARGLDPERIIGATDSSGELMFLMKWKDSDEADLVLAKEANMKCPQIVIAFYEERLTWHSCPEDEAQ

What was measured:
[1] = target: T1, POGZ (in vitro synthesized) (UniProt Q8BZH4); assay: co-IP; proteins synthesized in TNT rabbit reticulocyte lysate, 5–10 μl of each mixed in 300 μl TEN buffer, 30 min at room temperature; IP with Dynabeads protein G coupled with antibodies; Western blot
T1 sequence: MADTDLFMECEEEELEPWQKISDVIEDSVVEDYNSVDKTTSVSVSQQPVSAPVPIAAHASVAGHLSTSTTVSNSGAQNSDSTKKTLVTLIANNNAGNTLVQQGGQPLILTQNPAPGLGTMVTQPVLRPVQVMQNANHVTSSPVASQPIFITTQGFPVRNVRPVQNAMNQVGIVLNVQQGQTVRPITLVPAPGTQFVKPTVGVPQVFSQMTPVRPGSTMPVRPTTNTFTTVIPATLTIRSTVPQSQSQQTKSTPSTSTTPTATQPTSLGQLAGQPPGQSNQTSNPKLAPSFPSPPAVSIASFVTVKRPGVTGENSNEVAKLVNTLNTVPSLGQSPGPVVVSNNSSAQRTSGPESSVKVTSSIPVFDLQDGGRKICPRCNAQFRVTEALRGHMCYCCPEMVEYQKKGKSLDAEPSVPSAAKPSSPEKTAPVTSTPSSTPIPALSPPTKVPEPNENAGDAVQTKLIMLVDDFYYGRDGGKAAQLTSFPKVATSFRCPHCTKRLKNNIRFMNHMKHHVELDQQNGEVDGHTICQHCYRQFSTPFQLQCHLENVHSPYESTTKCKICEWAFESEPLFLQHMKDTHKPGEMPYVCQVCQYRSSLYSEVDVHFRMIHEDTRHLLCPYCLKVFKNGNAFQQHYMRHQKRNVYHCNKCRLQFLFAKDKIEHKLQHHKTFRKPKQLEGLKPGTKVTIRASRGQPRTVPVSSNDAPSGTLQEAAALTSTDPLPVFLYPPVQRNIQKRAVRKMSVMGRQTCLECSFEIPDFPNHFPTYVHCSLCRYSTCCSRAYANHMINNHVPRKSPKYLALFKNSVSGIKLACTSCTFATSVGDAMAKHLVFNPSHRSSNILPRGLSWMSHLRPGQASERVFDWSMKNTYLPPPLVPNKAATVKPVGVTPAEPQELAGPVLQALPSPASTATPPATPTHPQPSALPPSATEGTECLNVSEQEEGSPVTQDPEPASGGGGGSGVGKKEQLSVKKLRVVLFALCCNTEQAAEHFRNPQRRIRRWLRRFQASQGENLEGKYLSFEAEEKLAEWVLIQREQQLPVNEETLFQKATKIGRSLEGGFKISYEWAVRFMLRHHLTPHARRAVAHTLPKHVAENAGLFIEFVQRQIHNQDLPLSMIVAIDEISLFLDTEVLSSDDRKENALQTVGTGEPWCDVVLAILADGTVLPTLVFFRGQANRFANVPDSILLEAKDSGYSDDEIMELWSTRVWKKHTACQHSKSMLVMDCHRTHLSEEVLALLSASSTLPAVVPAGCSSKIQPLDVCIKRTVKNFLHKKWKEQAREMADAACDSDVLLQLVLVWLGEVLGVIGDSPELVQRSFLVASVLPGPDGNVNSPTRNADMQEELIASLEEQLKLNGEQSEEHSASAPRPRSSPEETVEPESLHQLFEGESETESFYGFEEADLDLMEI

[2] = target: T2, POGZ (endogenous, mouse ESCs) (mouse (endogenous in mESCs R1)) (UniProt Q8BZH4); assay: co-IP; endogenous proteins in WT ESCs; total cell lysate with antibody-conjugated Dynabeads Protein G overnight at 4 °C, three washes with PBS 0.1% Tween; Western blot
T2 sequence: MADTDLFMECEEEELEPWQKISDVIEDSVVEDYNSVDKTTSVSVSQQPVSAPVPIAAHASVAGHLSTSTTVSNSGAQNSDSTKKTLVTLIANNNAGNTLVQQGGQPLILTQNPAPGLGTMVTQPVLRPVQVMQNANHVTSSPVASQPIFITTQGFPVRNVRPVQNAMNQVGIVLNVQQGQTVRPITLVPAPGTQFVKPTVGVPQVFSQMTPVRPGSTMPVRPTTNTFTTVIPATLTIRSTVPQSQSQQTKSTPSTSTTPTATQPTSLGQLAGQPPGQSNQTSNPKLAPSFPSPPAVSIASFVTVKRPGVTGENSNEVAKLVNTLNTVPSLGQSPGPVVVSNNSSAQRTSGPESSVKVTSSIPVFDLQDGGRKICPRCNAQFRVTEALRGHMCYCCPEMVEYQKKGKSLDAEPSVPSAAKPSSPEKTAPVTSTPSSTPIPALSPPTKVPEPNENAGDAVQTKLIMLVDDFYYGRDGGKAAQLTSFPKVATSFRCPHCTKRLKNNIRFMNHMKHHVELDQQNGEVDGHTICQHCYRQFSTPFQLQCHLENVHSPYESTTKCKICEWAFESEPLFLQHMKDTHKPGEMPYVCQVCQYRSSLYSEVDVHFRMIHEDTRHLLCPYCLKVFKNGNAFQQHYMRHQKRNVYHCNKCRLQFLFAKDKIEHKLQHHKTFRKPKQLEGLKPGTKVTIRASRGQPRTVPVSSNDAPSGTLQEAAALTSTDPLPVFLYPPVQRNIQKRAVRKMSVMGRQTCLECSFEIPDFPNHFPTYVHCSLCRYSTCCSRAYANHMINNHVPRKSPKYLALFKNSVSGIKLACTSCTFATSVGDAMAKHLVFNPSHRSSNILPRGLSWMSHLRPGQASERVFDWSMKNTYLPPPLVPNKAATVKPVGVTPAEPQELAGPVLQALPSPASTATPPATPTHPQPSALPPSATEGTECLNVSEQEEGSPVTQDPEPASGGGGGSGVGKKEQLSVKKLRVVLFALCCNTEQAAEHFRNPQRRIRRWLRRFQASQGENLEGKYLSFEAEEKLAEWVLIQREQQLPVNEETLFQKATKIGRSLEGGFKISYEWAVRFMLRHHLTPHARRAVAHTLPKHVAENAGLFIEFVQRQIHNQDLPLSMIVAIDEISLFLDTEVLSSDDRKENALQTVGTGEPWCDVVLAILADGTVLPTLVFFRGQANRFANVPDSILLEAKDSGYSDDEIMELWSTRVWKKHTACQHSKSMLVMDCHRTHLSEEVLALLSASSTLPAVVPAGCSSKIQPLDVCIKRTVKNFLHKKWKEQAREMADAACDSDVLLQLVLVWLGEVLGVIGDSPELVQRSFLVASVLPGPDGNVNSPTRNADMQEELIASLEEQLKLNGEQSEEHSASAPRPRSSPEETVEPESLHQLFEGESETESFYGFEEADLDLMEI

3 × Flag-POGZ (mouse) = target: T3, 3 × Flag-POGZ (mouse) (UniProt Q8BZH4); assay: co-IP; FLAG-POGZ Pogz−/− ESCs; total cell lysate with antibody-conjugated Dynabeads Protein G overnight at 4 °C, three washes with PBS 0.1% Tween; Western blot
T3 sequence: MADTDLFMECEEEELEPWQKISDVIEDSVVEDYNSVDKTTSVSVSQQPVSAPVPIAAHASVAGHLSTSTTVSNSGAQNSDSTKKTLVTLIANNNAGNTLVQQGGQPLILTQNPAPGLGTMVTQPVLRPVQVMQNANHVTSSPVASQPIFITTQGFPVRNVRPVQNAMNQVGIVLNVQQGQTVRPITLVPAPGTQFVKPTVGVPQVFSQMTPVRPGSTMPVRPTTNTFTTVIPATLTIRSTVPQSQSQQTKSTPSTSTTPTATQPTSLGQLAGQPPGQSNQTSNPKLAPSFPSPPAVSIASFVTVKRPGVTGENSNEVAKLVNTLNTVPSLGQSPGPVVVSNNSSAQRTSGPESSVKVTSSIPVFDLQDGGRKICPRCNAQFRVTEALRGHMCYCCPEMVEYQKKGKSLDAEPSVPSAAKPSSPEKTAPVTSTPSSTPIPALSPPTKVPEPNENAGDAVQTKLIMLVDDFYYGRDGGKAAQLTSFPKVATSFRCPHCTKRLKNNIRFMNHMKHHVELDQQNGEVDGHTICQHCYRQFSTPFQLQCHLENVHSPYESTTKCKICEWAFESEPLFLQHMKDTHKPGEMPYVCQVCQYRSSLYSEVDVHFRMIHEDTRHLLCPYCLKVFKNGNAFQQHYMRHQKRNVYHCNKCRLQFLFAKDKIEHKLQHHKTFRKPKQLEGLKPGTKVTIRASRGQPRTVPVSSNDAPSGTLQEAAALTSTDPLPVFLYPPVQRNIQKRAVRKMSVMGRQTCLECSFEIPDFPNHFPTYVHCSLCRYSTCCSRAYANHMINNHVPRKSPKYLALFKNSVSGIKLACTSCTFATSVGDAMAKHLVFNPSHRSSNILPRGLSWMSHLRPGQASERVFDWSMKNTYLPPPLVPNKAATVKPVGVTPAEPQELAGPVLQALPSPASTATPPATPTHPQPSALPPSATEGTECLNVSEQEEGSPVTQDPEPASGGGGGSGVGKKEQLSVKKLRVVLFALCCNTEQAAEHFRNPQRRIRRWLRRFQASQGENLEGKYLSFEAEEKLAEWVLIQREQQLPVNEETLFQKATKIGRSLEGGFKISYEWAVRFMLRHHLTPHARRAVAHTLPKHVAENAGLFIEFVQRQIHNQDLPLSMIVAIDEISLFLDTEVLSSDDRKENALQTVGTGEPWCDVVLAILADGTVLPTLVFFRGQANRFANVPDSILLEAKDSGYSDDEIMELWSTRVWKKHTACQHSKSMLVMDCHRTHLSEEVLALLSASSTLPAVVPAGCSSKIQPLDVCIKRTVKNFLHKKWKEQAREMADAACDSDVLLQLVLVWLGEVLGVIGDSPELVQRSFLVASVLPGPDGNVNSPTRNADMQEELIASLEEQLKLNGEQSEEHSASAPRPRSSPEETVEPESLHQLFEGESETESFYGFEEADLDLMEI

Row | Substance | binding [1] | binding [2] | binding (3 × Flag-POGZ (mouse))
1 | FLAG-BAF155 (in vitro synthesized) (from UniProt P97496 1-1104) | binds weakly |  | 
2 | SMARCA4/BRG1 (endogenous, mouse ESCs) (from UniProt Q3TKT4 1-1613) |  | binds | binds
3 | SMARCC1/BAF155 (endogenous, mouse ESCs) (from UniProt P97496 1-1104) |  | binds | binds
4 | HP1γ/CBX3 (from UniProt P23198 1-183) |  |  | binds
